Experimental data taken from patent US20200181284A1 (UNIVERSITY OF SOUTHERN CALIFORNIA, published 2020).
Substitutions are numbered along the chain they refer to.

Columns and labels:
[1] = biological target: T1, glucocorticoid receptor (GR) (human, UniProt P04150 1-777); experiment: proximity ligation assay, endogenous proteins, A549 cells; association depends on G9a/GLP (ternary complex)
T1 construct: hGR expressed from a plasmid in Cos-7 cells (co-immunoprecipitation) or endogenous GR of A549 cells (co-immunoprecipitation, PLA); also called hGR; NR3C1
T1 sequence (looked up): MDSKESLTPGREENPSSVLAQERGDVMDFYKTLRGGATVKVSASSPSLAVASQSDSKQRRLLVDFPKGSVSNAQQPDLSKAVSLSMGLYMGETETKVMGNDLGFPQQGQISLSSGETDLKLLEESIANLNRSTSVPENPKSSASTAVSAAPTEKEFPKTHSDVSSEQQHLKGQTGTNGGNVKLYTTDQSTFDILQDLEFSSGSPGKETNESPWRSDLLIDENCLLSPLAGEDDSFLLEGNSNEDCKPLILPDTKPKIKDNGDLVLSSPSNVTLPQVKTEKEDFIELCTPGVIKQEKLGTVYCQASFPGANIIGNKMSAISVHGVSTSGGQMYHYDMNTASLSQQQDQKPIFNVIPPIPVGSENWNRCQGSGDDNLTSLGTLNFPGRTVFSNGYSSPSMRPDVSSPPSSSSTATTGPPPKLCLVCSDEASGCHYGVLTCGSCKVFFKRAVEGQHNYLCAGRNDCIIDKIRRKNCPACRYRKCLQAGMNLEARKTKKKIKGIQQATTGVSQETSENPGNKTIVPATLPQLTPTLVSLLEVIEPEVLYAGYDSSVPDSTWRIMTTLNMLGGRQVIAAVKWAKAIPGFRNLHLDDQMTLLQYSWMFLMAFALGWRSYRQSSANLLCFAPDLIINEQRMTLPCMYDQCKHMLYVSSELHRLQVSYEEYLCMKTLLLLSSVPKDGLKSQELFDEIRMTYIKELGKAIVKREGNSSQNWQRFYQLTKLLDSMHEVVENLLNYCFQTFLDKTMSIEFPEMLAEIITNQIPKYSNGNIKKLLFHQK
Excerpt: Scale bar represents 10 μm. […] Scale bar represents 10 μm. […] Scale bar represents 10 μm.

[2] = biological target: T2, full length HA-hG9a wild type (human, UniProt Q96KQ7 1-1210, in cells methylated on K185 and phosphorylated on T186 (as detected with pan-methyllysine and pan-phosphothreonine antibodies)); experiment: proximity ligation assay (HA and HP1γ antibodies), A549 rtta cells
T2 construct: Expressed from pSG5.HA-hG9a in Cos-7 cells, or from a doxycycline-inducible transgene in A549 rtta cells; also called EHMT2; KMT1C
T2 sequence (looked up): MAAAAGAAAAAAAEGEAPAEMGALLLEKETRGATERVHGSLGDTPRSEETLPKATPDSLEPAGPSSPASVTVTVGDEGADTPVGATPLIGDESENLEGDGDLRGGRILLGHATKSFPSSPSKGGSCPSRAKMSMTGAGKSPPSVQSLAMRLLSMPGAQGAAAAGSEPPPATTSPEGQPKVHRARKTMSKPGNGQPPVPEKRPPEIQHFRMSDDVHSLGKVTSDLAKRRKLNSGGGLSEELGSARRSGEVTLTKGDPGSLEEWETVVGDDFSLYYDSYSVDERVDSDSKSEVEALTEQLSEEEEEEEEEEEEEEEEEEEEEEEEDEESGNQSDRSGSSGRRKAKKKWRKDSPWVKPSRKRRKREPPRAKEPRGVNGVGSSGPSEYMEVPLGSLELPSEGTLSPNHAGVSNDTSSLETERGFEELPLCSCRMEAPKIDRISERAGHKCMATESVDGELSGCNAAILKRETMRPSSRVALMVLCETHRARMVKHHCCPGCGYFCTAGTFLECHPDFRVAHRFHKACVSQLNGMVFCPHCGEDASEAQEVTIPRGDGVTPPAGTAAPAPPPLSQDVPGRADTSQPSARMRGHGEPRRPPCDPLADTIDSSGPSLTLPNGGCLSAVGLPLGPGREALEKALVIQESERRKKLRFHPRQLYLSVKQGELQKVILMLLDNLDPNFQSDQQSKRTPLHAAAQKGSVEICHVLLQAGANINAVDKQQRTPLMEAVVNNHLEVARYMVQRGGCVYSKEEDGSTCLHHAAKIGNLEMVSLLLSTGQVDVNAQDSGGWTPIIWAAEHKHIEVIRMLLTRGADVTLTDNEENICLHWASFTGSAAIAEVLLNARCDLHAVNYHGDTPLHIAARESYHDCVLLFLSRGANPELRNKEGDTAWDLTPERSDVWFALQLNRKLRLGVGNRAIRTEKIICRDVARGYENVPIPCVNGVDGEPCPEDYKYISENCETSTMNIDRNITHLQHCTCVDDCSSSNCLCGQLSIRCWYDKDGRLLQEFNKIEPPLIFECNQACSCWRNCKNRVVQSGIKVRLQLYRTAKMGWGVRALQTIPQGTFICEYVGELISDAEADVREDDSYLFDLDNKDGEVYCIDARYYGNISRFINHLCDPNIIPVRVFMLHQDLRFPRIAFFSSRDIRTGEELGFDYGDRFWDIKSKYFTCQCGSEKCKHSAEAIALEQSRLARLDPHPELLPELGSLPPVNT

[3] = biological target: T3, endogenous G9a of A549 cells (human, UniProt Q96KQ7 2-1210, limits assumed); experiment: proximity ligation assay, endogenous proteins, A549 cells
T3 construct: also called EHMT2
T3 sequence (looked up): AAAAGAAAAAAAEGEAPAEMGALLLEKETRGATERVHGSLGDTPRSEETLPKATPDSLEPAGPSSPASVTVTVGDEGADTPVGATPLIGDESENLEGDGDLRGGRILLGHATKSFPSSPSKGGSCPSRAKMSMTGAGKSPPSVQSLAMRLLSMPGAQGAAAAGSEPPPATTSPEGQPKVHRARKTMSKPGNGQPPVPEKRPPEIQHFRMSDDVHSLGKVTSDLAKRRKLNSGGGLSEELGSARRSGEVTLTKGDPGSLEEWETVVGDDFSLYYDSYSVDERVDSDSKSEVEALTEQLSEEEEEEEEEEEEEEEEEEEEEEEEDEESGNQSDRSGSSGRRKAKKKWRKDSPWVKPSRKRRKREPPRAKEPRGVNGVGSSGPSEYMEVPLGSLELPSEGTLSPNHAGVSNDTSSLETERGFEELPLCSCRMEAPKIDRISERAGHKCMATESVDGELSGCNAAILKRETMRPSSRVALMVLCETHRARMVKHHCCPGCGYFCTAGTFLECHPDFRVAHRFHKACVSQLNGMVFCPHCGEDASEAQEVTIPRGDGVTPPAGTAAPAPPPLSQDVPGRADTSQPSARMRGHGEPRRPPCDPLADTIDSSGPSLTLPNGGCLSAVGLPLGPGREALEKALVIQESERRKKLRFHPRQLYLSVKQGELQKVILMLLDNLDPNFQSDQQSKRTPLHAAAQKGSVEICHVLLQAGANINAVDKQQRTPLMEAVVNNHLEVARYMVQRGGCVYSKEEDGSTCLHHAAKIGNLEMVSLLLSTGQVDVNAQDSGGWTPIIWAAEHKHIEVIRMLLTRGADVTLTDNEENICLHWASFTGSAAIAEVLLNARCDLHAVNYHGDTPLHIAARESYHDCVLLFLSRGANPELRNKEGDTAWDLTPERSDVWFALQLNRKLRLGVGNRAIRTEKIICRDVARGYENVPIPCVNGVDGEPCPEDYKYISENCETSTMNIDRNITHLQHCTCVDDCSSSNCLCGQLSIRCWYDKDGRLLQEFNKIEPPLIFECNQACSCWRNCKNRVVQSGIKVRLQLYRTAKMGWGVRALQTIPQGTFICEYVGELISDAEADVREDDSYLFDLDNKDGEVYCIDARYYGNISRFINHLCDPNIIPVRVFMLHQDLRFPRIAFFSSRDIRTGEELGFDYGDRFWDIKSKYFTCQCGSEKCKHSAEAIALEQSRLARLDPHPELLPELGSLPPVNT

[4] = biological target: T4, full length HA-hG9a K185R mutant (human, UniProt Q96KQ7 1-1210); experiment: proximity ligation assay (HA and HP1γ antibodies), A549 rtta cells; weaker than wild type
T4 construct: Expressed in Cos-7 cells or from a doxycycline-inducible transgene in A549 rtta cells; also called HA-G9a K185R
T4 sequence (looked up): T2 sequence (looked up) with K185R

binding result [1]: binds | binding result [2]: binds | binding result [3]: binds | binding result [4]: binds
B1: heterochromatin protein 1 gamma (HP1γ), endogenous protein of A549 cells (other, human, UniProt Q13185 2-183, looked up)
chain: ASNKTTLQKMGKKQNGKSKKVEEAEPEEFVVEKVLDRRVVNGKVEYFLKWKGFTDADNTWEPEENLDCPELIEAFLNSQKAGKEKDGTKRKSLSDSESDDSKSKKKRDAADKPRGFARGLDPERIIGATDSSGELMFLMKWKDSDEADLVLAKEANMKCPQIVIAFYEERLTWHSCPEDEAQ
notes: Detected in fixed cells by proximity ligation assay; also called CBX3
